Measurements from article PMC12040169 (PLOS Biology, 2025).
The list shows a part of the results.

These molecules were tested on T1, CTL2-GFP (C. trachomatis L2/434/Bu, GFP-expressing). Conditions: bulk GFP, single well; 28.5 h, 10 µM; inhibitor.
T1 construct: L2/434/Bu, GFP-expressing
Design: species or system HeLa; Intracellular C. trachomatis growth in HeLa cells, bulk GFP fluorescence relative to DMSO

| SMILES | % of control remaining [%] |
| --- | --- |
| Cc1n[nH]c(C)c1Sc1n[nH]c(=O)[nH]c1=O [CBK027833] | 100.726 |
| CC1=NN(c2ccccc2)C(=O)/C1=C1/C(=O)Nc2c(C)cc(Br)cc21 [CBK263950] | 114.823 |
| Cc1cc(Cl)cc(Cl)c1S(=O)(=O)Nc1nc(-c2cccnc2)cs1 [CBK200035] | 70.9568 |
| CC1CCN(Cc2ccc(-c3ccc(CC(=O)NCc4ccc(C#N)cc4)cn3)cc2)CC1 [CBK158409] | 122.629 |
| Cc1nc(CC(=O)N2CCCC(c3cccc(Cc4ccc(Cl)cc4)n3)C2)cs1 (stereo not drawn) [CBK286505] | 92.8822 |
| CC(C)CN1CCC2(CC=CCN(Cc3ccc(F)cc3)C2=O)CC1 [CBK285521] | 94.5941 |
| Cn1c(=O)n(CC(=O)OCc2ccccc2)c2cccnc21 [CBK284019] | 131.008 |
| COc1ccc(Cc2cccc(C3CCN(C(=O)Cc4ccc(F)cc4)CC3)n2)cc1 [CBK286225] | 91.8681 |
| CN1CCN(c2ccc(S(=O)(=O)Nc3cc(C(=O)O)cc(C(=O)O)c3)cc2[N+](=O)[O-])CC1 [CBK263862] | 99.8034 |
| Cc1ccc(C)c(NC(=O)C(C)Sc2nc3ccccc3nc2C)c1 (stereo not drawn) [CBK296744] | 106.93 |
| N#Cc1cnc2ccccc2c1N1CCC(C(=O)O)CC1 [CBK288050] | 125.161 |
| Nc1ccc2cc(-c3ccsc3)cnc2n1 [CBK081167] | 107.095 |
| COc1cc(CNc2cncc(-c3cccc(NC(C)=O)c3)n2)cc(OC)c1OC [CBK066133] | 196.1 |
| Oc1cccc(-c2cn3ccnc3c(NC3CC3)n2)c1 [CBK038076] | 86.794 |
| Cc1nc(C)c(C(=O)N2CCCC(c3cc4cccnc4[nH]3)C2)s1 (stereo not drawn) [CBK284995] | 84.5197 |
| CC1Cc2ccccc2N1C(=O)c1nn(C)cc1I (stereo not drawn) [CBK058268] | 143.677 |
| COc1ccc(CNC(=O)c2cc(S(=O)(=O)N(C)C)cs2)cc1 [CBK307579] | 134.162 |
| CN(C)S(=O)(=O)c1ccc(C(=O)C2=C(O)C(=O)N(Cc3cccnc3)C2c2ccncc2)cc1 (stereo not drawn) [CBK264714] | 112.894 |
| Cc1onc(-c2ccccc2)c1C(=O)NCCCn1ccnc1 [CBK262870] | 117.356 |
| CCCn1c(SCC(=O)N2c3ccc(F)cc3CCC2C)nnc1-c1cccnc1 (stereo not drawn) [CBK059187] | 122.388 |
| CCCN(CC1CC1)C(=O)CC1SC(NCC2CCCCC2)=NC1=O (stereo not drawn) [CBK067014] | 89.7715 |

| SMILES | % of control remaining [%] |
| --- | --- |
| COc1cccc(C(=O)N2CCOC(c3cc(C(=O)NCC(C)C)c4ccccc4n3)C2)c1 (stereo not drawn) [CBK285894] | 139.854 |
| CCN1CCN(C(=O)Cc2cccnc2)CC1 [CBK200375] | 107.007 |
| CN(C)c1cccc(-c2cnc3[nH]c(=O)n(CCCO)c3n2)c1 [CBK065052] | 98.6969 |
| c1ccc(C2(CN3CCN(Cc4cccnc4)CC3)CC2)cc1 [CBK282793] | 99.7803 |
| Cc1cc(COc2ccc(C(F)(F)F)cn2)no1 [CBK115792] | 114.721 |
| CC(=O)Nc1cccc(-c2nccnc2C2CCCN(CCc3ccccc3)C2)c1 (stereo not drawn) [CBK286128] | 104.169 |
| CC(CN(C)C(=O)c1c[nH]nn1)Oc1ccc(Cl)c(Cl)c1 (stereo not drawn) [CBK306160] | 132.381 |
| Cc1cc(NN(Cc2ccccc2)Cc2ccccc2)n2c(nc3ccccc32)c1C#N [CBK262666] | 100 |
| Nc1nc(COc2ccc(F)cc2)nc(N2CCOCC2)n1 [CBK288183] | 98.7251 |
| Nc1ccc2ccc(-c3ccc4c(c3)CCO4)nc2n1 [CBK067625] | 132.66 |
| CN1CCC(N2CCN(C(=O)NCc3cccnc3)CC2)CC1 [CBK155889] | 111.627 |
| NS(=O)(=O)c1ccc(CCNC(=O)CN2C(=O)c3ccccc3C2=O)cc1 [CBK264377] | 115.668 |
| COc1ccc(CN2CCN(C(=O)c3cccc(F)c3)CC2)c(OC)c1OC [CBK074523] | 125.39 |
| CSc1ccccc1NC(=O)c1cc(Cl)sc1Cl [CBK057008] | 137.653 |
| CN1CCN(c2cc3ncccc3cc2F)CC1 [CBK066904] | 85.835 |
| CC(=O)Nc1cccc(C(=O)N2CCN(Cc3ccccn3)CC2)c1 [CBK304067] | 124.278 |
| COc1cc(OC)nc(C(NC(=O)C2CCN(Cc3ccc(N(C)C)cc3)CC2)c2ccc(F)cc2)n1 (stereo not drawn) [CBK148204] | 109.142 |
| Cc1c(C(=O)N(C)CCc2ccncc2)[nH]c2ccccc12 [CBK283271] | 101.755 |
| CCC(=O)c1c(CC)n[nH]c1-c1c(Cl)cccc1Cl [CBK107819] | 175.877 |
| CCc1cc(C(=O)Nc2nn(C)c3cccc(N4CCOCC4)c23)cs1 [CBK307419] | 111.398 |
| Cc1nc(OCC(=O)O)c(C#N)c2c1COC(C)(C)C2 [CBK286810] | 99.6591 |

At a glance, some entries already given:

| SMILES | % of control remaining [%] |
| --- | --- |
| Cc1nc(C)c(C(=O)N2CCCC(c3cc4cccnc4[nH]3)C2)s1 (stereo not drawn) [CBK284995] | 84.5197 |
| CC1Cc2ccccc2N1C(=O)c1nn(C)cc1I (stereo not drawn) [CBK058268] | 143.677 |
| COc1ccc(CNC(=O)c2cc(S(=O)(=O)N(C)C)cs2)cc1 [CBK307579] | 134.162 |
| CN(C)S(=O)(=O)c1ccc(C(=O)C2=C(O)C(=O)N(Cc3cccnc3)C2c2ccncc2)cc1 (stereo not drawn) [CBK264714] | 112.894 |
| Cc1onc(-c2ccccc2)c1C(=O)NCCCn1ccnc1 [CBK262870] | 117.356 |

Next part.

| SMILES | % of control remaining [%] |
| --- | --- |
| CCCn1c(SCC(=O)NCCN2C(=O)CSC2=O)n[nH]c1=O [CBK296976] | 159.388 |
| Cc1nc(CNCc2c(C)nn(C)c2N(C)C)cs1 [CBK304808] | 110.839 |
| N#CC(C(=O)CN1CCN(Cc2ccccc2)CC1)c1ccccc1 (stereo not drawn) [CBK269386] | 128.187 |
| Cc1ncc(CN2CCOC(c3cc(C(=O)NCC(C)C)c4ccccc4n3)C2)s1 (stereo not drawn) [CBK285897] | 105.104 |
| Cc1nc2ccccc2n1C(F)(F)C(F)F [CBK022023] | 119.279 |
| O=C(Cn1ccc(=O)[nH]c1=O)NCc1cccnc1OC1CCCC1 [CBK305582] | 106.816 |
| Cc1ccccc1C(=O)N1C[C@H]2NC(=O)c3ccccc3C(=O)[C@@]2(C)C1 [CBK285316] | 143.599 |
| CCCCNC(=O)NC1CCCC1 [CBK027084] | 141.317 |
| O=C(Nc1ccncc1)c1cc2cc(Cl)ccc2[nH]1 [CBK107340] | 131.2 |
| O=C(CCc1cn2ccccc2n1)NCc1cc2n(n1)CCCNC2 [CBK307157] | 132.668 |
| Cc1nnc(SCc2cccc(Oc3ccccc3)c2)n1N [CBK265714] | 150.493 |
| O=C(CN1C(=O)N2CCCN=C2c2ccccc21)N1CCCC1 [CBK284419] | 120.728 |
| COc1cccc(CN2CCC(C(=O)O)CC2)c1OC [CBK286548] | 131.298 |
| CCn1cc(CN(Cc2cccnc2)Cc2ccccc2OC)cn1 [CBK307224] | 127.286 |
| O=C(O)C1N(Cc2ccccc2)CCCN1Cc1ccccc1 [CBK265196] | 105.49 |
| O=C(/C=C/c1cccnc1)Nc1c(F)cc(F)cc1OC1CCNCC1 [CBK050324T] | 100 |
| Cc1cc(F)c(S(=O)(=O)N2CCN(C)CC2)cc1NC(=O)c1cc2ccccc2o1 [CBK034419C] | 103.944 |
| Cn1cc(CN(Cc2ccccc2)CC2CCCO2)cn1 (stereo not drawn) [CBK283233] | 140.402 |
| Cc1cc2nc(C3CCCN3C(=O)CN3CCCCC3)[nH]c2cc1C (stereo not drawn) [CBK282944] | 116.112 |
| COc1cc(CNC(=O)NC(=O)C2CCN(C(C)C)CC2)cc(OC)c1OC [CBK034800] | 113.911 |
| O=C(Nc1ccccc1Cl)N1CCCCC1CO (stereo not drawn) [CBK156180] | 100 |

| SMILES | % of control remaining [%] |
| --- | --- |
| Cc1cccc2sc(NC(=O)CCCCCNC(N)=O)nc12 [CBK296689] | 137.504 |
| Cc1n[nH]c(C)c1CCC(=O)N/N=C\c1ccc(Cl)c(Cl)c1 [CBK263395] | 114.947 |
| O=C(Nc1ccc2[nH]ncc2c1)c1ccccc1Cl [CBK000191] | 106.052 |
| Cc1ccc(NCC2CCN(CC(=O)Nc3cc(C)on3)C2)nc1 (stereo not drawn) [CBK306337] | 150.697 |
| O=S(=O)(c1ccc(OC(F)(F)F)cc1)N1CCN(Cc2ccc3c(c2)OCO3)CC1 [CBK200040] | 126.761 |
| CCc1nc2ccc(C(=O)N3CCCCC3)cn2c1N(CC)Cc1ccc2c(c1)OCCO2 [CBK146903] | 109.973 |
| CCOC(=O)/C(C#N)=C(\O)c1ccc(N2C(=O)c3ccc(C(=O)O)cc3C2=O)cc1 [CBK262683] | 131.626 |
| C=CCNC(=O)N1CC[C@H]2CC(=O)N(Cc3ccc4c(c3)OCO4)CC[C@H]2C1 [CBK288794] | 106.678 |
| CN(C)CCN(C)C1CCN(Cc2ccccc2)CC1 [CBK261930] | 104.684 |
| O=C(O)CCn1c(=O)cc(C(F)F)c2cn(Cc3ccccc3)nc21 [CBK286881] | 121.378 |
| O=C(NCc1ccccc1OC1CCNC1)c1ccccn1 (stereo not drawn) [CBK029464T] | 87.4487 |
| Cc1nn(CCC(=O)NC(C)(C)CN2CCCC(C)C2)c(C)c1C (stereo not drawn) [CBK282676] | 103.539 |
| CC(C)[C@@H](Cn1nc(-c2cccs2)ccc1=O)NC(=O)C1CC1 [CBK284297] | 119.05 |
| Cc1cc(-c2nnc(SCC(=O)N3CCCc4ccccc43)o2)no1 [CBK268828] | 138.647 |
| COc1cc2c(cc1OC)CN(Cc1nc3ccccc3[nH]1)CC2 [CBK126390] | 108.928 |
| Cc1cc(Cl)ccc1NC(=S)NCCc1ccc(S(N)(=O)=O)cc1 [CBK264888] | 119.309 |
| O=S(=O)(Nc1cc(NC2CCNC2)c2occc2c1)c1ccccc1 (stereo not drawn) [CBK066943C] | 71.9275 |
| Cc1ccc(CNC(=O)OCc2cccnc2C)o1 [CBK200131] | 42.1286 |
